Results from the supplement of paper PMC8551327.
Counter-ions that a name gives are not always drawn. This is one part of the list. Cut-off read from the data, not from the text of the source: active = 1.25 or more and inactive = the rest. Most values come without repeats; read them as rough.

The compounds below were run on Kcc2-LUC knock-in mouse primary cortical neurons (Kcc2 promoter reporter) (assay: Kcc2 promoter-driven luciferase activity relative to vehicle control (fold of vehicle (ratio)); higher = stronger Kcc2 promoter activation (Kcc2 expression enhancer)). Conditions: 100 nM; 48 h.

SMILES	Kcc2 promoter-driven luciferase activity
COc1ccc(-c2csc(=[N+]3CCCCC3)s2)cc1	inactive: 1.1
CO[C@H]1/C=C\C=C(/C)C(=O)NC2=CC(=O)C(N)=C(C[C@@H](C)C[C@H](OC)[C@H](O)[C@@H](C)/C=C(\C)[C@@H]1OC(N)=O)C2=O [Geldanamycin, 17-amino-17-demethoxy-]	active: 1.43
Cc1ccc(NC(=O)/C=C/c2ccccc2)c(C)c1 [N-(2,4-dimethylphenyl)-3-phenylacrylamide]	inactive: 0.34
COC(=O)[C@@H]1c2cc3c(c(O)c2[C@@H](O[C@@H]2O[C@@H](C)[C@H](OC)[C@@](C)(OC)[C@H]2OC)C[C@]1(C)O)C(=O)c1c(O)cc2c(c1C3=O)O[C@@H]1O[C@@]2(C)[C@H](O)[C@@H](N(C)C)[C@@H]1O [Nogalamycin]	active: 1.43
COc1ccc2c(c1)CCc1c-2n[nH]c1-c1[nH]nc2c1CCc1cc(OC)ccc1-2	inactive: 0.48
O=C1Oc2ccccc2C(=O)/C1=C1\C=C(c2ccccc2)SS1 [(3Z)-3-(5-Phenyldithiol-3-ylidene)chromane-2,4-dione]	inactive: 1
CCCCCCCCCCNCCSSCc1ccc(Cl)cc1	inactive: 0.95
C(=C/c1nc2ccccc2o1)/c1ccc2c(c1)OCO2 [2-[(Z)-2-(1,3-benzodioxol-5-yl)ethenyl]-1,3-benzoxazole]	inactive: 0.31
CC(=NNC(=S)N1CCC1)c1ccccn1	inactive: 0.82
NC(=O)C#CC(N)=O [Cellocidin]	inactive: 1.2
NC(=O)c1c([N+](=O)[O-])cc(C(F)(F)F)cc1[N+](=O)[O-] [2,6-dinitro-4-(trifluoromethyl)benzamide]	inactive: 0.97
Nc1ccccc1C(=O)NC(=O)Nc1ccc(Oc2ncc(Br)cn2)c(Cl)c1	inactive: 0.96
O=C(CCc1ccccc1)On1nnc2ccccc2c1=O [(4-Oxo-1,2,3-benzotriazin-3-yl) 3-phenylpropanoate]	inactive: 0.57
COC(=O)C1(C)CCCC2(C)C3=CC(O)C4(C(C)C)OC4C3(O)CCC12 (stereo not given)	inactive: 1.03
O=C([O-])c1cc(I)cc(I)c1O.O=C([O-])c1cc(I)cc(I)c1O.[Mn+2] [Mn(II) 3,5-diiodosalicylate]	inactive: 0.82
[N-]=[N+]=Nc1ccc2c(c1)Sc1ccccc1N2CCCCN1CCN(Cc2ccc(C(=O)c3ccccc3)cc2)CC1 [bismaleate salt]	inactive: 1.18
Cn1cnc([N+](=O)[O-])c1Sc1nnnn1-c1ccccc1 [5-(3-Methyl-5-nitroimidazol-4-yl)sulfanyl-1-phenyltetrazole]	inactive: 1.13
CC(=O)NC(CC(C)C)C(=O)NC(Cc1ccccc1)C(=O)CCl (stereo not given)	inactive: 0.73
CCN(CC)CCOc1ccccc1/C=C/c1noc2ccccc12	inactive: 0.8
CC(=O)SC(SC(C)=O)SC(C)=O [Tris(Acetylthio)Methane]	active: 6.26
O=S1(=O)CCN(c2ccccc2CC(c2c[nH]c3ccccc23)c2c[nH]c3ccccc23)CC1	inactive: 0.48
O=C1C2=Nc3ccccc3C(O)N2c2ccccc21 (stereo not given) [12-hydroxy-12H-indolo[2,1-b]quinazolin-6-one]	inactive: 0.48
COc1ccc(-c2cc(=O)c3c(O)cc(O)cc3o2)cc1OC [5,7-Dihydroxy-3',4'-dimethoxyflavone]	inactive: 0.87
CCOc1ccccc1NC(=O)CC1Sc2ccccc2NC1=O (stereo not given)	inactive: 1.08
CCOC(=O)c1ccc(-c2cc(C)no2)[nH]1 [Ethyl 5-(3-methyl-5-isoxazolyl)-1H-pyrrole-2-carboxylate]	inactive: 1.09
NCCSSCc1ccccc1CSSCCN	inactive: 1.03
Nc1ncnc2c([C@@H]3O[C@H](CO)[C@@H](O)[C@H]3O)c[nH]c12 [9-Deazaadenosine]	active: 2.37
CCC1CN2CCc3cc(OC)c(OC)cc3C2CC1CC1c2cc(OC)c(OC)cc2CCN1C(=O)C(Cc1c[nH]c2ccccc12)NC(=O)OC(C)(C)C (stereo not given)	active: 1.25
CCOC(=O)Nc1nc2ccc(Cn3cccc3)cc2[nH]1	inactive: 0.49
Cc1ccc([N+](=O)[O-])cc1NC(=O)c1cccc([N+](=O)[O-])c1O [Benzamide, 2-hydroxy-N-(2-methyl-5-nitrophenyl)-3-nitro-]	inactive: 0.92

Copied from the list:
Kcc2 promoter-driven luciferase activity, `CO[C@H]1/C=C\C=C(/C)C(=O)NC2=CC(=O)C(N)=C(C[C@@H](C)C[C@H](OC)[C@H](O)[C@@H](C)/C=C(\C)[C@@H]1OC(N)=O)C2=O` [Geldanamycin, 17-amino-17-demethoxy-] is entered as active: 1.43
Kcc2 promoter-driven luciferase activity, `O=C(CCc1ccccc1)On1nnc2ccccc2c1=O` [(4-Oxo-1,2,3-benzotriazin-3-yl) 3-phenylpropanoate] is entered as inactive: 0.57
